The values below come from publication PMC13496012.

Protein sequences, listed by entry. Tags and fused reporters are not part of them.
UniProt P05556: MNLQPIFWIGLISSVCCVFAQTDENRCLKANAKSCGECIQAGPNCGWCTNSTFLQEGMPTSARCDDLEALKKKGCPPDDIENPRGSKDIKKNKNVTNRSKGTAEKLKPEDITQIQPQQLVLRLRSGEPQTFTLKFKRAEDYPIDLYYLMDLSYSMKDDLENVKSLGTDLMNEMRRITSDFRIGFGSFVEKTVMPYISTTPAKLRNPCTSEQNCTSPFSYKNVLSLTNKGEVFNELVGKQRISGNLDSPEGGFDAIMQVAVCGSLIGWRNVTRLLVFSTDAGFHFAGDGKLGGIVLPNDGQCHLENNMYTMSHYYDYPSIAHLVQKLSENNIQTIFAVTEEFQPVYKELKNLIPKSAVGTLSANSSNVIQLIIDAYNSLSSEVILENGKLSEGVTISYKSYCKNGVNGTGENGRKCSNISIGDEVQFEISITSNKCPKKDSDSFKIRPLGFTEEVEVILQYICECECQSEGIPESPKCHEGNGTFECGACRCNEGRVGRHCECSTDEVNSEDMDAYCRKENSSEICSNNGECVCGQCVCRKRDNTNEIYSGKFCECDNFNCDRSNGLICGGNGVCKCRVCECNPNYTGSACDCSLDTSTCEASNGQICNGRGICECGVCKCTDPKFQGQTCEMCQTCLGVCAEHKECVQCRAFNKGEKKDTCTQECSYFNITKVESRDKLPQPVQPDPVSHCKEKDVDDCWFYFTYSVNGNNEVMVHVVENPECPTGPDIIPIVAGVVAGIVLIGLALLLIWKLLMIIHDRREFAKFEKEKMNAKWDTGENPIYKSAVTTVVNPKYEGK

Test [1] deals with β1-integrin subunit (human (endogenous in TIME cells)) (UniProt P05556). As to the kind of experiment: proximity ligation; whole cell PLA (Duolink) in fixed, permeabilized TIME cells transfected with Halo-CD36; rabbit anti-HaloTag with mouse anti-β1-integrin K20 (total) or 12G10 (active); mitofilin antibody as negative control; spinning disk confocal; read-out percent of cell area occupied by PLA puncta.

Test [2] shares this target. As to the kind of experiment: proximity ligation; cell surface PLA (Duolink) in fixed TIME cells transfected with Halo-CD36; anti-β1-integrin K20 applied before permeabilization, anti-HaloTag after; TIRFM; read-out ratio of PLA detection density in CD36-expressing to non-expressing cells.

These are yes or no findings as the source states them, for the method shown. Binding seen in cells or lysates may run through a third protein. Some binding calls cover weakened binding; strength is not graded here. Sequences can lack the tags named with a protein.

B1: HaloTag-fused CD36 G12V (Halo-CD36^G12V) (receptor, UniProt P16671 1-472)
chain: MGCDRNCGLIAVAVIGAVLAVFGGILMPVGDLLIQKTIKKQVVLEEGTIAFKNWVKTGTEVYRQFWIFDVQNPQEVMMNSSNIQVKQRGPYTYRVRFLAKENVTQDAEDNTVSFLQPNGAIFEPSLSVGTEADNFTVLNLAVAAASHIYQNQFVQMILNSLINKSKSSMFQVRTLRELLWGYRDPFLSLVPYPVTTTVGLFYPYNNTADGVYKVFNGKDNISKVAIIDTYKGKRNLSYWESHCDMINGTDAASFPPFVEKSQVLQFFSSDICRSIYAVFESDVNLKGIPVYRFVLPSKAFASPVENPDNYCFCTEKIISKNCTSYGVLDISKCKEGRPVYISLPHFLYASPDVSEPIDGLNPNEEEHRTYLDIEPITGFTLQFAKRLQVNLLVKPSEKIQVLKNLKRNYIVPILWLNETGTIGDEKANMFRSQVTGKINLLGLIEMILLSVGVVMFVAFMISYCACRSKTIK
Take B1: the binding result in test [1] and in test [2] was “binds” in each case.
